Experimental data: publication PMC3585135
No constants are given. Whether binding was seen depends on the method and setting. For part of these data: Binding seen in cells or lysates may run through a third protein. Some binding calls cover weakened binding; strength is not graded here. For part of these data: Sequences can lack the tags named with a protein.

Protein sequences, listed by entry. Tags and fused reporters are not part of them.
UniProt P63279: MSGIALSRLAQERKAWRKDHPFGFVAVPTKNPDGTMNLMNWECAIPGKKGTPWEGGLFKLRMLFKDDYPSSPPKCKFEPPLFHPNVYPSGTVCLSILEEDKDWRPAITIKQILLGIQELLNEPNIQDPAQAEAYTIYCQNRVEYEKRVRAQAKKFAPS
UniProt P25963: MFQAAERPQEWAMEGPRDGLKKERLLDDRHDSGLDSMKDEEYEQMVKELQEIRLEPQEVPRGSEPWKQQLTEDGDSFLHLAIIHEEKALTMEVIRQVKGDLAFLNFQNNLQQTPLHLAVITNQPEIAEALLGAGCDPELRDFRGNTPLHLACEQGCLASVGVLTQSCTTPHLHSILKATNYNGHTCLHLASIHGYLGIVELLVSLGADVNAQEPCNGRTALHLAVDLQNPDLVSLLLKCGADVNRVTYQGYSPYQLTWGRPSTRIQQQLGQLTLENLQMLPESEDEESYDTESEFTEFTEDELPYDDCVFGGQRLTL
UniProt Q16665: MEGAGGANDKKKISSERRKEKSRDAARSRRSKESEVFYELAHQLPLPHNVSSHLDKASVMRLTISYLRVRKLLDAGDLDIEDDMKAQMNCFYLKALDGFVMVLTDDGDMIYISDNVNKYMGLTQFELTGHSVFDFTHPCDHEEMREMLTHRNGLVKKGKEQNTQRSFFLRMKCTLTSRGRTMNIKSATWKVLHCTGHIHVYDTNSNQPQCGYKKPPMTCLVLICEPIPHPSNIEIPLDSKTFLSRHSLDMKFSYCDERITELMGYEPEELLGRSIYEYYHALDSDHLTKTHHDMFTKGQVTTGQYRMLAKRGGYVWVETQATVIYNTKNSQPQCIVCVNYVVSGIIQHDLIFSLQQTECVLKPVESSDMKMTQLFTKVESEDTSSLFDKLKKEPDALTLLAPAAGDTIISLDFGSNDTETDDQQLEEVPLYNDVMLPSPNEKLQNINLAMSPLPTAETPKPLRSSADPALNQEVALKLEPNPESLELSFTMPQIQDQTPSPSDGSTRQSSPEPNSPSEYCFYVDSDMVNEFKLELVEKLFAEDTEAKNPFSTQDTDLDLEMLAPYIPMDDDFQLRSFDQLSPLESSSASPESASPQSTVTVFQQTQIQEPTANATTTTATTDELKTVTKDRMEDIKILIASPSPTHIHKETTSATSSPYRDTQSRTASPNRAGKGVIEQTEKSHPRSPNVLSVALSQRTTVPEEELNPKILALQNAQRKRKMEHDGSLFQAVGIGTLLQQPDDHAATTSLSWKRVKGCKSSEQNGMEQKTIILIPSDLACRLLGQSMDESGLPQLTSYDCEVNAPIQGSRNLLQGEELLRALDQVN

B1: recombinant RSUME267 (protein, UniProt Q9Y3V2-1 1-267)
chain: MAEPVQEELSVLAAIFCRPHEWEVLSRSETDGTVFRIHTKAEGFMDVDIPLELVFHLPVNYPSCLPGISINSEQLTRAQCVTVKENLLEQAESLLSEPMVHELVLWIQQNLRHILSQPETGSGSEKCTFSTSTTMDDGLWITLLHLDHMRAKTKYVKIVEKWASDLRLTGRLMFMGKIILILLQGDRNNLKEYLILQKTSKVDVDSSGKKCKEKMISVLFETKVQTEHKRFLAFEVKEYSALDELQKEFETAGLKKLFSEFVLALVK
B2: recombinant RSUME195 (protein, UniProt Q9Y3V2-2 1-195)
chain: MAEPVQEELSVLAAIFCRPHEWEVLSRSETDGTVFRIHTKAEGFMDVDIPLELVFHLPVNYPSCLPGISINSEQLTRAQCVTVKENLLEQAESLLSEPMVHELVLWIQQNLRHILSQPETGSGSEKCTFSTSTTMDDGLWITLLHLDHMRAKTKYVKIVEKWASDLRLTGRLMFMGKIILILLQGDRNNLKVPKS
B3: V5-RSUME267 (protein, UniProt Q9Y3V2-1 1-267)
chain: B1 chain
B4: V5-RSUME195 (protein, UniProt Q9Y3V2-2 1-195)
chain: B2 chain

What was measured:
GST-Ubc9 = GST-Ubc9 (UniProt P63279); experiment: pull-down; 3 µg GST or GST-Ubc9 immobilised on Sepharose beads, 1 µg recombinant RSUME195 or RSUME267, 1 h at 4°C in GST-binding buffer (20 mM Tris-HCl pH 7.4, 100 mM KCl, 2.5 mM CaCl2, 2.5 mM MgCl2, 1 mM DTT, 0.5% NP-40, 1 mM PMSF); Western blot; both purified
Flag-IκBα = Flag-IκBα (UniProt P25963); experiment: co-IP; COS-7 cells co-transfected with 500 ng V5-RSUME isoform and 500 ng IκBα or HIF-1alpha vector; hypoxia 16 h only for HIF-1alpha; modified RIPA lysate; immunoprecipitated with anti-Flag, blotted with anti-V5 or anti-Flag
Flag-HIF-1alpha = Flag-HIF-1alpha (UniProt Q16665); experiment: as above

| Binder | binding (GST-Ubc9) | binding (Flag-IκBα) | binding (Flag-HIF-1alpha) |
| --- | --- | --- | --- |
| B1 | binds | – | – |
| B2 | binds | – | – |
| B3 | – | binds | binds |
| B4 | – | binds | binds |
